PubChem BioAssay AID1259330 – Drosophila RNAi Screening Center, 2017
In all, the deposit lists 95 reagents; shown is a part drawn at random. 6 of them (6.3%) were called active. 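Calls rest on pair 1 alone and pair 2 does not reproduce them; printed active calls all sit near 1.5 or higher.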 Not stated in the record: the amount of reagent.

Purpose: 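Cellular ATP after silencing metal-related candidate genes, water instead of metal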
Cells: Drosophila S2R+ cells
Reagents: long dsRNA against Drosophila genes
Timing: 5 days (4 days of knock-down, then 1 day after water)
Conditions: water added as vehicle control after 4 days, 1 day before read-out; no manganese or zinc
Read-out: 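Total ATP measured by CellTiter-Glo luciferase light, given as z-scores from the mean of duplicate plates; 4 days knock-down, then water for 1 day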
Direction: ATP z-score, pair 1 and ATP z-score, pair 2: higher = more total ATP than other wells
Active means: 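a gene counts as active when its pair 1 ATP z-score is above 1.5 or below -1.5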

After knock-down of Cdc50 (Cell division cycle 50) [DRSC20224], the record shows ATP z-score, pair 1 = 0.825; ATP z-score, pair 2 = -0.665; inactive.
Silencing of Atox1 (Antioxidant 1 copper chaperone) [DRSC22416] gave: ATP z-score, pair 1 = 0.908; ATP z-score, pair 2 = -1.14; inactive.
Rbcn-3A (Rabconnectin-3A) [DRSC18314] scored ATP z-score, pair 1 = -0.0512; ATP z-score, pair 2 = 0.542; inactive.
Rbcn-3A (Rabconnectin-3A) [DRSC28199] scored ATP z-score, pair 1 = -0.0969; ATP z-score, pair 2 = 0.701; inactive.
anne (anne boleyn) [DRSC29952] scored ATP z-score, pair 1 = 0.36; ATP z-score, pair 2 = 0.375; inactive.
With knock-down of anne (anne boleyn) [DRSC40853], the screen gave ATP z-score, pair 1 = 0.0403; ATP z-score, pair 2 = 0.161; inactive.
p38a (p38a MAP kinase) [DRSC36706] showed ATP z-score, pair 1 = -0.326; ATP z-score, pair 2 = -0.487; inactive.
After knock-down of p38a (p38a MAP kinase) [DRSC37322], the record shows ATP z-score, pair 1 = 0.857; ATP z-score, pair 2 = -0.626; inactive.
After knock-down of alphaCOP (Coat Protein (coatomer) alpha) [DRSC08706], the record shows ATP z-score, pair 1 = 1.51; ATP z-score, pair 2 = 0.524; active.
After knock-down of alphaCOP (Coat Protein (coatomer) alpha) [DRSC30831], the screen gave ATP z-score, pair 1 = 1.37; ATP z-score, pair 2 = -0.495; inactive.
For alphaCOP (Coat Protein (coatomer) alpha) [DRSC30832], the values are ATP z-score, pair 1 = 2.7; ATP z-score, pair 2 = 1.26; active.
With knock-down of iPLA2-VIA (calcium-independent phospholipase A2 VIA) [DRSC10699] the results were ATP z-score, pair 1 = 0.171; ATP z-score, pair 2 = 1.05; inactive.
Silencing of iPLA2-VIA (calcium-independent phospholipase A2 VIA) [DRSC37171] gave: ATP z-score, pair 1 = -0.224; ATP z-score, pair 2 = -0.0715; inactive.
Silencing of sp3 (spermathreecae) [DRSC16354] resulted in: ATP z-score, pair 1 = -0.0158; ATP z-score, pair 2 = -0.823; inactive.
After knock-down of sp3 (spermathreecae) [DRSC41446] the results were ATP z-score, pair 1 = -0.823; ATP z-score, pair 2 = -1.03; inactive.
For Vha16-1 (Vacuolar H[+] ATPase 16kD subunit 1) [DRSC05020] the deposit lists ATP z-score, pair 1 = -0.739; ATP z-score, pair 2 = 1.36; inactive.
With knock-down of Vha16-1 (Vacuolar H[+] ATPase 16kD subunit 1) [DRSC32229], the record shows ATP z-score, pair 1 = -0.726; ATP z-score, pair 2 = 0.414; inactive.

Reformatted: 3 of the entries above.
{"gene knocked down": "Atox1 (Antioxidant 1 copper chaperone)", "dsRNA": "DRSC22416", "ATP z-score, pair 1": 0.908, "ATP z-score, pair 2": -1.14, "outcome": "inactive"}
{"gene knocked down": "Rbcn-3A (Rabconnectin-3A)", "dsRNA": "DRSC18314", "ATP z-score, pair 1": -0.0512, "ATP z-score, pair 2": 0.542, "outcome": "inactive"}
{"gene knocked down": "Rbcn-3A (Rabconnectin-3A)", "dsRNA": "DRSC28199", "ATP z-score, pair 1": -0.0969, "ATP z-score, pair 2": 0.701, "outcome": "inactive"}

Next records:
Lnk [DRSC16729] gave ATP z-score, pair 1 = 1.2; ATP z-score, pair 2 = -0.53; inactive.
Lnk [DRSC31005] showed ATP z-score, pair 1 = -0.63; ATP z-score, pair 2 = 0.711; inactive.
Depletion of MFS14 (Major Facilitator Superfamily Transporter 14) [DRSC06524] came out at: ATP z-score, pair 1 = 0.323; ATP z-score, pair 2 = -0.593; inactive.
MFS14 (Major Facilitator Superfamily Transporter 14) [DRSC39753] showed ATP z-score, pair 1 = 0.434; ATP z-score, pair 2 = -0.316; inactive.
With knock-down of ZnT86D (Zinc transporter 86D) [DRSC16091], the screen gave ATP z-score, pair 1 = 1.01; ATP z-score, pair 2 = -0.157; inactive.
With knock-down of ZnT86D (Zinc transporter 86D) [DRSC40064], the record shows ATP z-score, pair 1 = 0.733; ATP z-score, pair 2 = -0.436; inactive.
Depletion of SPoCk (Secretory Pathway Calcium atpase) [DRSC11844] resulted in: ATP z-score, pair 1 = 0.681; ATP z-score, pair 2 = -0.75; inactive.
Against SPoCk (Secretory Pathway Calcium atpase) [DRSC24007], the entry reads ATP z-score, pair 1 = -0.612; ATP z-score, pair 2 = 0.571; inactive.
For foi (fear-of-intimacy) [DRSC29596] the deposit lists ATP z-score, pair 1 = 1.01; ATP z-score, pair 2 = -0.194; inactive.
Depletion of foi (fear-of-intimacy) [DRSC35740] came out at: ATP z-score, pair 1 = 0.427; ATP z-score, pair 2 = -0.451; inactive.
